## Library screening results

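Viability assay of Plasmodium falciparum sporozoites; the read-out is not stated. The concentration is filed as 10 mM, unlikely as a test dose, so the dose is not known. Higher reads as lower viability (inferred: compounds with an IC50 in retests scored well above the rest). Strong results were mostly tested again. About 34,000 compounds were tested under these conditions; 0.84% (about 280) showed 50% or more at least once.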

Values are the deposited “Percent Effect”, in %.
The record does not define 0% and 100%; most values in the screen are far below 50% and negative numbers occur (in some assays of this library far below -100).
This is an unselected part of the compounds tested.
Two or more numbers in one place are separate tests of the same structure; such repeats can differ widely.

structure	percent effect
[H][C@@]12COC[C@@H](CC(=O)NCCOC)[C@]1([H])CN(C(=O)COC)C2	-0.8757
Cn1ccnc1CN1CCCN(C(=O)c2ccc3c(c2)COC3)CC1	-3.993
Cc1cc(CN(C)C2CCCN(Cc3noc(C)n3)C2)no1 (stereo not given)	1.346
CN(Cc1ccc(-n2cccn2)cc1)CC1CCCN1c1cccnn1 (stereo not given)	-0.1701
COC(=O)CC(c1ccccc1)c1oc(C)cc(=O)c1O (stereo not given)	6.133
Cc1nc(C2CCCN(C(C)C)C2)sc1Br (stereo not given)	10.17
Fc1ccc(CN2CCCC2c2cncc(-n3ccnc3)n2)cc1 (stereo not given)	-4.947
CC(C)(C)c1noc(CN2CCN(C(=O)c3cccs3)CC2)n1	5.887
Cc1ccc(-c2nc(C(=O)N3CCN(C(=O)N(C)C)CC3)cs2)c(C)c1	-2.234
COc1cc(S(=O)(=O)N2CCc3ccc(F)cc32)cc(C(=O)O)c1OC	-19.36
Cn1nc(C(=O)NC2CCCCC2)cc1NC(=O)C1CC1	-9.14
Br.Cc1c(NC(=O)CN2CCN(C3CCCC3)C(=O)C2)cnn1C	9.432
O=C(COCCc1ccccc1)N1CCCC(n2cccn2)C1 (stereo not given)	-0.6689
Cc1ccc(NC(=O)N2CC[C@@H](O)C2)c(-c2nc(C3CC3)no2)c1	-13.28
[H][C@]12CCC[C@@]1(COCc1cccc(C)n1)CN(C(=O)Cc1ccco1)C2	-1.107
CC(C)C(C(=O)N1CCC(N(C)c2cccnn2)CC1)n1cncn1 (stereo not given)	-3.2
[H][C@]12CC(=O)N(C(C)C)[C@@]1([H])CCN2C(=O)c1ccco1	-5.366
Cc1ccc(NC2CCN(C(=O)CCNS(C)(=O)=O)CC2)nn1	-8.772
c1cc(C2CCN(c3cnccn3)CC2)ccn1	11.86
[H][C@]12CCN(C(=O)c3ccc(OCCC)c(Cl)c3)C[C@]([H])(CC1)N2	-20.36 & -9.437
CCCS(=O)(=O)N1CCN(CCCO)CC1	-4.412
CSCCC1c2nc[nH]c2CCN1Cc1ccnc2ccccc12 (stereo not given)	5.579
O=S(=O)(N(Cc1ccccn1)C1CC1)N1CCCC1c1ccco1 (stereo not given)	-2.757
CCC(C)(NCC(=O)Nc1nc(C)cs1)c1nc(C)cs1 (stereo not given)	-1.384
CC(C)N(C)Cc1cncc2c1CCN(Cc1ccoc1)C2.Cl.Cl.Cl	-19.94 & -20.2 & 16.13
COc1c(CNCc2ccc(N(C)C)nc2)c(C)nn1C	-3.211
CCOCC(O)c1nc2c([nH]1)CC(C)(C)CNC2=O (stereo not given)	-12
Cc1ccc(S(=O)(=O)N(C)Cc2nccs2)cc1N(C)C	-3.403
Cc1cnn(C2CN(CC(=O)NCC(C)C)C2)c1	10.5
O=C(O)C(F)(F)F.[H][C@@]12CCN(c3ccc(C)nn3)[C@]1([H])CC[C@H](C(=O)N1CCCO1)O2	9.359
COCC(=O)N1CCC2(CC1)CN(c1ccsc1)C(=O)CO2	13.14
Cc1cc(CNC(=O)N2CCN(c3ccc(Cl)cn3)CC2)c(C)o1	-0.1304
Cc1nc(CN2CCC23CCN(Cc2ccco2)CC3)cs1	6.48
CCc1nnc2n1CCN(CCC(=O)Nc1sccc1C#N)C2	5.694
[H][C@@]12CN(C)CCO[C@]1([H])CN(S(=O)(=O)c1ccc(OC)cc1)C2	1.798
CCc1nc(CC(=O)N2CCn3c(CC)nnc3C2)cs1	1.306
[H][C@@]12COCC[C@]1([H])C[C@H](N(CC(=O)NC)S(=O)(=O)c1ccccc1)C2	-11
CNc1cccc(C2CCCN(C(C)=O)C2)n1 (stereo not given)	-18.37
CCN1CCN(c2ncc(-c3cc(C)no3)c(-c3ccc(C)s3)n2)CC1	2.014
Cc1csc(C(Cc2ccsc2)NC(=O)C2CCN(S(C)(=O)=O)CC2)n1 (stereo not given)	-9.356
COc1c(C)cnc(CN2CCn3c(nnc3C(C)C)C2)c1C	-2.855
Cc1cccc(CS(=O)(=O)Cc2ccn(C)c(=O)c2)c1	3.842
CN1CC=C(c2noc(CCC(=O)N3CCOCC3)n2)CC1	-3.906
O=C(NCC1CCCCC1)NC1CCCc2c1cnn2CCO (stereo not given)	38.6 & 33.33 & 56.01
Cc1nn(C)cc1-c1cc(C(=O)N2CCc3ncc(Cl)cc3C2)on1	-1.144
CN(C)[C@@H]1CCN(C(=O)Cc2ccc(F)cc2)[C@H]1Cc1cnn(C)c1.O=C(O)C(F)(F)F	-0.346
CC(=O)c1cccc(NCC(=O)NC(N)=O)c1	-4.302
Cc1ccc(O)c(CNCC(C)c2nc3ccccc3o2)n1 (stereo not given)	-14.47
CC(C)c1nn(C)c(N2CCOCC2)c1CNCCS(C)(=O)=O	2.415
COc1ccc(C)cc1CN1CCn2cccc2C1C (stereo not given)	-11.76

The first 4 entries again:

[H][C@@]12COC[C@@H](CC(=O)NCCOC)[C@]1([H])CN(C(=O)COC)C2 gave -0.8757%.
Cn1ccnc1CN1CCCN(C(=O)c2ccc3c(c2)COC3)CC1 gave -3.993%.
Cc1cc(CN(C)C2CCCN(Cc3noc(C)n3)C2)no1 (stereo not given) gave 1.346%.
CN(Cc1ccc(-n2cccn2)cc1)CC1CCCN1c1cccnn1 (stereo not given) gave -0.1701%.

Source: ChEMBL document CHEMBL3988442, “University of Dundee, Small-Polar-MMV Screening Library” (2021).